Laboratory results: patent US20230140224A1 (APRILBIO, published 2023)
No constants are given. Whether binding was seen depends on the method and setting. Some results given as binding are weak or reduced against the parent protein; the word gives no strength.

By UniProt entry, the sequences of proteins in these tests, tags left out. Residues count along the entry.
UniProt P49064, residues 25-608: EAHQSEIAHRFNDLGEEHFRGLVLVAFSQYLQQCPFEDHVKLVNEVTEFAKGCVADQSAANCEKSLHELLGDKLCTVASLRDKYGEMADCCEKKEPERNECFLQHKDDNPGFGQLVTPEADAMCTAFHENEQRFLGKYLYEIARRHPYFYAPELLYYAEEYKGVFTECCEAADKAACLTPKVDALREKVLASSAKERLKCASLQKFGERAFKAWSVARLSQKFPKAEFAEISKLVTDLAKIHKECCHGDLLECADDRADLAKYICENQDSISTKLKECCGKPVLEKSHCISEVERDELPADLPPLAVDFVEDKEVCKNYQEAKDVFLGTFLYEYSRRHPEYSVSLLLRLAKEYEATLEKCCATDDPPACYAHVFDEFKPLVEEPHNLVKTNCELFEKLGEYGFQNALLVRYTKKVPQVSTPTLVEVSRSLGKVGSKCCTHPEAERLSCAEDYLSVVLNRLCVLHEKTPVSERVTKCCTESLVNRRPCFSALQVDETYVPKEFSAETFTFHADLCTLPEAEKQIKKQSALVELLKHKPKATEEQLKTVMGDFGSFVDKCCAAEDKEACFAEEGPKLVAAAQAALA

Biological target: feline serum albumin (feline) (UniProt P49064)
Test: ELISA, albumin coated on plate, Fab in solution

binding: binds
B1: FL335 Fab antibody fragment (Fab, V domains shown)
VH: QVQLVQSGGGPVKPGGSLRLSCAASGFMFRAYSMNWVRQAPGKGLEWVSSISSSGRYIHYADSVKGRFTISRDNAKNSLYLQMNSLRAEDTAVYYCARETVMAGKALDYWGQGTLVTVSS
VL: DIVLTQSPGTLSLSPGETATLSCRASQSVGSNLAWYQQKPGQAPRLLIYGASTGATGVPARFSGSRSGTDFTLTITSLQPEDFATYYCQQYYSFLAKTFGQGTQLEIKR
notes: also called FL355 Fab antibody fragment; feline chimeric antibody fragment
